For this assay, the target named is T1, Msh2HA (Msh2 subunit with an HA epitope tag), expressed in S. cerevisiae (S. cerevisiae) (UniProt P25847).
T1 sequence: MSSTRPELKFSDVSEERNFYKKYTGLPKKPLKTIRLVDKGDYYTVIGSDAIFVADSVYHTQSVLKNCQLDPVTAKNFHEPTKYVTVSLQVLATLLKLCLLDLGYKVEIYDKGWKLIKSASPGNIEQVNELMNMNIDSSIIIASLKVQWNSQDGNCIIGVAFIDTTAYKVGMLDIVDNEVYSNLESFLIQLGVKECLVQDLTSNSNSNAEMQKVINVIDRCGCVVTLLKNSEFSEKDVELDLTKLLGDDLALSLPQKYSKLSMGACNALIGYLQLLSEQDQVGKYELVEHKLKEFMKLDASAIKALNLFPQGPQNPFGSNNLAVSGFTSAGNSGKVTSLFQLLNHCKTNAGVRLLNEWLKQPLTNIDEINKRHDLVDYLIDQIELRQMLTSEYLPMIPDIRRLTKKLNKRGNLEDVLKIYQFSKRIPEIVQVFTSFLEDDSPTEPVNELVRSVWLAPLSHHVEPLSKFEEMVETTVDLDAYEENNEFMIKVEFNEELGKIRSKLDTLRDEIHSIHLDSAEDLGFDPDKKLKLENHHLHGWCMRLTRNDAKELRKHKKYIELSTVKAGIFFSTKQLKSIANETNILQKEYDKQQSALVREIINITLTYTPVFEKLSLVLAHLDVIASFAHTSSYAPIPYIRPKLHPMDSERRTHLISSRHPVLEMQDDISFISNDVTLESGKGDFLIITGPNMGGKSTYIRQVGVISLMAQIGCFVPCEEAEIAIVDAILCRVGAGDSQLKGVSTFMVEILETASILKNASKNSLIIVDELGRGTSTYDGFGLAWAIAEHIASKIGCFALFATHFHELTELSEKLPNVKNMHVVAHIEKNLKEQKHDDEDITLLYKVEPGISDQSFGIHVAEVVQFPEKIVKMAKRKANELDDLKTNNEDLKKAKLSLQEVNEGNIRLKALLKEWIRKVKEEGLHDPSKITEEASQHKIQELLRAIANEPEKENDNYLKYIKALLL
Put plainly: co-purification by chromatography; the two subunits overexpressed in S. cerevisiae and purified together by sequential ion exchange chromatography and ssDNA-affinity chromatography.

No constants are given. Whether binding was seen depends on the method and setting. Some entries that bind do so weakly or less than the wild type. Where a sequence is shown, tags or fusion partners need not be part of it.

B1: Msh3, expressed in S. cerevisiae (protein, UniProt P25336 1-1018)
chain: MAGQPTISRFFKKAVKSELTHKQEQEVAVGNGAGSESICLDTDEEDNLSSVASTTVTNDSFPLKGSVSSKNSKNSEKTSGTSTTFNDIDFAKKLDRIMKRRSDENVEAEDDEEEGEEDFVKKKARKSPTAKLTPLDKQVKDLKMHHRDKVLVIRVGYKYKCFAEDAVTVSRILHIKLVPGKLTIDESNPQDCNHRQFAYCSFPDVRLNVHLERLVHHNLKVAVVEQAETSAIKKHDPGASKSSVFERKISNVFTKATFGVNSTFVLRGKRILGDTNSIWALSRDVHQGKVAKYSLISVNLNNGEVVYDEFEEPNLADEKLQIRIKYLQPIEVLVNTDDLPLHVAKFFKDISCPLIHKQEYDLEDHVVQAIKVMNEKIQLSPSLIRLVSKLYSHMVEYNNEQVMLIPSIYSPFASKIHMLLDPNSLQSLDIFTHDGGKGSLFWLLDHTRTSFGLRMLREWILKPLVDVHQIEERLDAIECITSEINNSIFFESLNQMLNHTPDLLRTLNRIMYGTTSRKEVYFYLKQITSFVDHFKMHQSYLSEHFKSSDGRIGKQSPLLFRLFSELNELLSTTQLPHFLTMINVSAVMEKNSDKQVMDFFNLNNYDCSEGIIKIQRESESVRSQLKEELAEIRKYLKRPYLNFRDEVDYLIEVKNSQIKDLPDDWIKVNNTKMVSRFTTPRTQKLTQKLEYYKDLLIRESELQYKEFLNKITAEYTELRKITLNLAQYDCILSLAATSCNVNYVRPTFVNGQQAIIAKNARNPIIESLDVHYVPNDIMMSPENGKINIITGPNMGGKSSYIRQVALLTIMAQIGSFVPAEEIRLSIFENVLTRIGAHDDIINGDSTFKVEMLDILHILKNCNKRSLLLLDEVGRGTGTHDGIAISYALIKYFSELSDCPLILFTTHFPMLGEIKSPLIRNYHMDYVEEQKTGEDWMSVIFLYKLKKGLTYNSYGMNVAKLARLDKDIINRAFSISEELRKESINEDALKLFSSLKRILKSDNITATDKLAKLLSLDIH
On to B1, for which the binding entry is reported as “binds”.

Source of the values: publication PMC4742970 (Nature Communications, 2016).
